# In patent publication US20210253603A1, “MAIN GROUP METAL COMPLEX AND ITS PREPARATION METHOD AND USE” (PEKING UNIVERSITY, priority 2018, published 2021):
# Tested on: human umbilical vein endothelial cells HUVEC
# Test: In vitro anticancer activities of complexes (Experiment 2)
# Format: cell-based
# Settings: IC50(HUVEC)/IC50(Hela)
# Experimental: The cell lines used in the experiments were obtained from Peking University.
# The safety index (SI) was calculated according to the following equation:
# ^bSafety Index (SI)=IC50(HUVEC)/IC50(Hela)
row,Structure (SMILES),Safety Index (SI)
1,C#CCN(C)c1ccc2c(c1)[O][Ga-3]13([N+]#CC)([N+]#CC)[O]c4cc(N(CC)CC)ccc4C=[N+]1C(C#N)=C(C#N)[N+]3=C2.[Cl-] [Complex 2],0.30
2,CC#[N+][Ga-3]123([N+]#CC)[O]c4ccccc4C=[N+]1C(C#N)=C(C#N)[N+]2=Cc1ccccc1[O]3.[Cl-] [Complex 4],0.08
3,CC#[N+][Ga-3]123([N+]#CC)[O]c4cc(N(C)C)ccc4C=[N+]1C(C#N)=C(C#N)[N+]2=Cc1ccc(N(C)C)cc1[O]3.[Cl-] [Complex 6],0.64
4,CC#[N+][Ga-3]123([N+]#CC)[O]c4cc(N5CCCC5)ccc4C=[N+]1C(C#N)=C(C#N)[N+]2=Cc1ccc(N2CCCC2)cc1[O]3.[Cl-] [Complex 7],0.30
5,C#CCN(C)c1ccc2c(c1)[O][Ga-3]13([N+]#CC)([N+]#CC)[O]c4cc(N(C)CC#C)ccc4C=[N+]1C(C#N)=C(C#N)[N+]3=C2.[Cl-] [Complex 8],0.78
6,CC#[N+][Ga-3]123([N+]#CC)[O]c4cc(N(CC)CC)ccc4C=[N+]1c1ccccc1[N+]2=Cc1ccc(N(CC)CC)cc1[O]3.[Cl-] [Complex 9],0.75
7,CC#[N+][Ga-3]123([N+]#CC)[O]c4c(ccc5c4SCCN5C)C=[N+]1C(C#N)=C(C#N)[N+]2=Cc1ccc2c(c1[O]3)SCCN2C.[Cl-] [Complex 10],3.79
8,CC#[N+][Ga-3]123([N+]#CC)[O]c4cc5c(cc4C=[N+]1C(C#N)=C(C#N)[N+]2=Cc1cc2c(cc1[O]3)N(C)CCS2)SCCN5C.[Cl-] [Complex 12],1.29
9,CC#[N+][Ga-3]123([N+]#CC)[O]c4cc(N(C)CCCC)ccc4C=[N+]1C(C#N)=C(C#N)[N+]2=Cc1ccc(N(C)CCCC)cc1[O]3.[Cl-] [Complex 13],0.16
10,CC#[N+][Ga-3]123([N+]#CC)[O]c4ccccc4C=[N+]1c1ccccc1[N+]2=Cc1ccccc1[O]3.[Cl-] [Complex 14],8.33
11,CC#[N+][Ga-3]123([N+]#CC)[O]c4cc(N(CC)CC)ccc4C=[N+]1c1ccncc1[N+]2=Cc1ccc(N(CC)CC)cc1[O]3.[Cl-] [Complex 15],0.78
